Reference: PubChem BioAssay AID602313 (National Center for Advancing Translational Sciences (NCATS), 2012)
The campaign covered roughly 390,000 compounds. About 760 (0.19%) were called active. This list was built around the results that the source calls inconclusive (neither active nor inactive); the mix of calls is not that of the screen. Calls follow the shape of the dose curve; as a rule, active = well fitted inhibition curve with a large enough effect; inconclusive = small, poorly fitted or top-dose-only effect; inactive = flat fitted curve, though single readings scatter. Potencies beside an inconclusive call are fits to weak or partial responses and may not hold up.

Experiment: qHTS for Inhibitors of Vif-A3F Interactions: qHTS; also: nearly all actives have a fitted effect of over 65% in size; as to activity, negative = active: % of control where 0% means no effect
Settings: HeLa A3F-eYFP + Vif (tagged APOBEC3F with the HIV-1 protein that degrades it), YFP fluorescence increase; series mostly up to 46.1 µM; activity, negative = active: at the top concentration
In short: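 Fluorescence increase (Ex 488/Em 500-530) after overnight compound treatment at 37 deg C flags inhibition of Vif-driven A3F-eYFP loss in stable HeLa A3F-eYFP/Vif cells seeded overnight beforehand.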
Potency is read from the fitted curve at half-maximal effect.

Row | SMILES | Potency | activity, negative = active
1 | CCN1C(=O)/C(=C/C=C2/SCCN2C)SC1=S | inconclusive: 3.16 µM [inhibitor, full curve, poor fit] | –
2 | COCCOC(=O)c1c(NC(=O)CNCc2ccco2)sc(C(N)=O)c1C | inconclusive: 35.5 µM [inhibitor, single point] | –
3 | O=C(COC(=O)c1ccc(S(=O)(=O)N2CCOCC2)cc1)Nc1ccccc1F | inconclusive: 6.31 µM [inhibitor, single point] | –
4 | O=C(COC(=O)/C=C/c1cccc(Cl)c1)Nc1ccc(N2CCOCC2)cc1 | inconclusive: 4.47 µM [inhibitor, single point] | –
5 | O=C(NCCCN1CCOCC1)C1Cc2c(ccc3ccccc23)O1 (stereo unspecified) | inconclusive: 35.5 µM [inhibitor, single point] | –
6 | C=CCSc1nnc(N2C(=O)C(O)=C(C(=O)c3ccco3)C2c2ccccc2F)s1 (stereo unspecified) | inconclusive: 20 µM [inhibitor, partial curve, poor fit] | –
7 | CCCN(C(=O)c1cccc(S(=O)(=O)N2CCCc3ccccc32)c1)C1CCS(=O)(=O)C1 (stereo unspecified) | inconclusive: 11.2 µM [inhibitor, partial curve, poor fit] | –
8 | CCCCC(=O)NNC(=S)NC(=O)CCC | – | inactive: 0%
9 | Cc1cc(C)n(-c2nc(SCC(=O)O)c3c4c(sc3n2)COC(C)(C)C4)n1 | inconclusive: 15.8 µM [inhibitor, single point] | –
10 | CCS(=O)(=O)c1nn2c(N)c(/C=C3/C=CC(=O)C(OC)=C3)c(=O)nc2s1 | active: 20 µM | –
11 | Cc1ccccc1CNc1ccc(C(CC(N)=O)NC(=O)c2ccccc2)cc1[N+](=O)[O-] (stereo unspecified) | inconclusive: 35.5 µM [inhibitor, single point] | –
12 | COc1ccc2nc(NCc3ccccc3)[nH]c2c1 | – | inactive: -9.51%
13 | COc1ccccc1CNC(=O)C(=O)NCC1OCCN1S(=O)(=O)c1ccc(Br)cc1 (stereo unspecified) | inconclusive: 6.31 µM [inhibitor, single point] | –
14 | CC(=O)c1ccccc1OCCOc1ncnc2sccc12 | inconclusive: 0.794 µM [inhibitor, full curve] | –
15 | CCCCn1cc(S(=O)(=O)c2ccc(OC)cc2)c(=O)c2cc(CC)ccc21 | – | inactive: -6.79%
16 | CNC(=O)C1CCC(Cn2c(=O)c3sccc3n(CC(=O)Nc3ccc(C)c(C)c3)c2=O)CC1 (stereo unspecified) | inconclusive: 20 µM [inhibitor, single point] | –
17 | CCN(CC)c1ccc(/C=N/NC(=O)C(O)c2ccccc2)cc1 (stereo unspecified) | – | inactive: -14.6%
18 | COc1cccc(-c2cc(C(=O)N3CCN(S(=O)(=O)c4ccc(Br)cc4)CC3)[nH]n2)c1 | inconclusive: 35.5 µM [inhibitor, single point] | –
19 | O=C(CN(C(=O)Cn1nnc(-c2ccc(F)cc2)n1)c1cnc2ccccc2c1)NCC1CCCO1 (stereo unspecified) | inconclusive: 3.16 µM [inhibitor, single point] | –
20 | CC(=O)N1CCc2nc3sc(C(=O)c4ccc(F)cc4)c(N)c3c(C(F)(F)F)c2C1 | active: 12.6 µM | –
21 | Cc1cccc(Nc2nnc(SCC(=O)c3ccc(Br)s3)s2)c1C | inconclusive: 3.55 µM [inhibitor, single point] | –
22 | O=[N+]([O-])c1ccccc1C=NNC(=S)NN=Cc1ccccc1[N+](=O)[O-] | – | inactive: -0.252%

Row | SMILES | Potency | activity, negative = active
23 | Cc1cccc(N/N=C/c2ccncc2)c1 | – | inactive: 9.81%
24 | CN1/C(=C/C(=S)NC(=O)C2(C)CC2(Cl)Cl)C(C)(C)c2ccccc21 (stereo unspecified) | inconclusive: 6.31 µM [inhibitor, partial curve, poor fit] | –
25 | CCN1C(=NCc2cc(OC)c(OC)c(OC)c2)N[C@@H](c2ccccc2)C(C(=O)OC)=C1C | – | inactive: -2.3%
26 | CCc1ccc(NC(=O)Cn2c(=O)n(CCCCC(=O)NCc3ccc4c(c3)OCO4)c(=O)c3ccccc32)cc1 | inconclusive: 31.6 µM [inhibitor, partial curve, poor fit] | –
27 | O=C(Cn1nnc(-c2ccc(N3CCOCC3)cc2)n1)OC1CCCCC1 | – | inactive: -1.39%
28 | CCCCNc1c(-c2ccc(OC)c(SC3CCCCC3)c2)nc2cc(C)ccn12 | inconclusive: 35.5 µM [inhibitor, single point] | –
29 | Cc1ccccc1-n1nc(C(=O)c2cccs2)cc(-c2nc3ccccc3[nH]2)c1=N | inconclusive: 2.24 µM [inhibitor, full curve, poor fit] | –
30 | Cc1ccc2nc(-c3ccc(SCC(=O)Nc4nc(C)cs4)nc3)[nH]c2c1 | inconclusive: 12.6 µM [inhibitor, single point] | –
31 | O=C(COC(=O)c1nc(Cl)c(Cl)c(Cl)c1Cl)NCc1ccccc1 | inconclusive: 5.62 µM [inhibitor, single point] | –
32 | O=C(COC(=O)Cc1c(F)cccc1Cl)Nc1nnc(-c2ccccc2)o1 | inconclusive: 2.82 µM [inhibitor, partial curve, poor fit] | –
33 | Cc1ccc(S(=O)(=O)ON2C(=O)c3cccc4cccc(c34)C2=O)cc1 | – | inactive: -4.17%
34 | COc1cc(-c2cc(OC)c(O)c(OC)c2)cc(OC)c1O | inconclusive: 17.8 µM [inhibitor, single point] | –
35 | O=S(=O)(NCCNc1ncc(C(F)(F)F)cc1Cl)C(F)(F)F | – | inactive: 1.79%
36 | COc1ccc(/C=C/C(=O)Nc2ccc(S(=O)(=O)Nc3onc(C)c3C)cc2)cc1OC | inconclusive: 1.58 µM [inhibitor, partial curve, poor fit] | –
37 | O=C(COC(=O)c1ccccc1O)Nc1cccc(S(=O)(=O)NC2=NCCCCC2)c1 | inconclusive: 5.62 µM [inhibitor, single point] | –
38 | N#Cc1c(N)n(-c2cccc(C(=O)O)c2)c2nc3ccccc3nc12 | inconclusive: 15.8 µM [inhibitor, partial curve, poor fit] | –
39 | Cc1nc2c(-c3ccccc3)c(C)nn2c(C)c1CC(=O)O | – | inactive: 3.72%
40 | Cc1ccc(C(=O)N/C(=C/c2ccc(-c3cccc([N+](=O)[O-])c3)o2)C(=O)NCCCN(C)C)cc1 | inconclusive: 35.5 µM [inhibitor, single point] | –
41 | O=C(O)c1ccc(N2CC3CC(C2)c2cccc(=O)n2C3)c(NC(=S)Nc2ccc(Br)cc2)c1 (stereo unspecified) | – | inactive: -11.7%
42 | O=C(O)C1CC=CCC1C(=O)NNS(=O)(=O)c1ccccc1 (stereo unspecified) | inconclusive: 3.55 µM [inhibitor, single point] | –
43 | Cc1ccc(OCC(=O)c2cc(C)n(-c3ccccc3)c2C)c([N+](=O)[O-])n1 | – | inactive: -6.95%
44 | CC(C)CC[n+]1ccccc1/C=C/c1ccc(N(C)C)cc1 | active: 7.94 µM | –

Quoted at random: 3 entries already listed
Row | SMILES | Potency | activity, negative = active
32 | O=C(COC(=O)Cc1c(F)cccc1Cl)Nc1nnc(-c2ccccc2)o1 | inconclusive: 2.82 µM [inhibitor, partial curve, poor fit] | –
27 | O=C(Cn1nnc(-c2ccc(N3CCOCC3)cc2)n1)OC1CCCCC1 | – | inactive: -1.39%
43 | Cc1ccc(OCC(=O)c2cc(C)n(-c3ccccc3)c2C)c([N+](=O)[O-])n1 | – | inactive: -6.95%

(cont.)

Row | SMILES | Potency | activity, negative = active
45 | O=C(c1nc2ccccn2c1CN1CCCC(OCc2ccccc2)C1)N1CCCC1 (stereo unspecified) | inconclusive: 11.2 µM [inhibitor, single point] | –
46 | CC(C)(C)OC(=O)N1O[C@H]2C[C@@H]1[C@@H]1[C@@H]2N=NN1C12CC3CC(CC(C3)C1)C2 | inconclusive: 14.1 µM [inhibitor, single point] | –
47 | CSc1nnc(NC(=O)c2nc(S(=O)(=O)Cc3ccccc3F)ncc2Cl)s1 | – | inactive: 5.01%
48 | COC(=O)c1cc2c(ccn2-c2ccc(F)cc2)n1Cc1ccc(OC)cc1 | inconclusive: 6.31 µM [inhibitor, single point] | –
49 | O=C(NCC(c1ccco1)N1CCCCC1)c1ccc(COc2ccc(Cl)cc2)cc1 (stereo unspecified) | – | inactive: 3.28%
50 | CCc1ccccc1N(CC(=O)NC1CCCCC1)C(=O)CCCC(=O)Nc1ccccn1 | inconclusive: 3.55 µM [inhibitor, single point] | –
51 | O=C(NCCCN1CCOCC1)C(=O)N/N=C/c1c2ccccc2cc2ccccc12 | inconclusive: 35.5 µM [inhibitor, single point] | –
52 | Cc1ccccc1NC(=O)COC(=O)c1cccnc1 | – | inactive: 4.83%
53 | Cc1cc(=O)n2cccc(O)c2n1 | inconclusive: 20 µM [inhibitor, single point] | –
54 | C/C(=N\NC(=O)c1cccnc1)c1c(O)cc(C)oc1=O | – | inactive: -0.142%
55 | COc1cc(/C=C(\C#N)c2nc3ccccc3[nH]2)cc(Cl)c1OCc1ccccc1Cl | inconclusive: 10 µM [inhibitor, partial curve, poor fit] | –
56 | O=C(NC1CCC(O)CC1)C1CCN(S(=O)(=O)c2c(Cl)cccc2Cl)CC1 (stereo unspecified) | inconclusive: 3.16 µM [inhibitor, single point] | –
57 | CCCn1c(C(C)Nc2nc(C)cs2)nc2cc(Cl)c(Cl)cc21 (stereo unspecified) | inconclusive: 35.5 µM [inhibitor, single point] | –
58 | O=C1CCC(=O)N1OCCOc1ccccc1 | inconclusive: 3.55 µM [inhibitor, single point] | –
59 | O=C(CSc1nccc(=O)[nH]1)Nc1cccc2ccccc12 | inconclusive: 14.1 µM [inhibitor, single point] | –
60 | CC1CC1C(=O)N(CCC1=CCCCC1)c1c(N)n(Cc2ccccc2)c(=O)[nH]c1=O (stereo unspecified) | inconclusive: 15.8 µM [inhibitor, single point] | –
61 | CCOc1cc(/C=N/Nc2cc(C)nc(-n3nc(C)cc3C)n2)ccc1O | inconclusive: 22.4 µM [inhibitor, single point] | –
62 | O=C(O)CCCNc1ccc(S(=O)(=O)N2CCCCC2)cc1 | inconclusive: 35.5 µM [inhibitor, partial curve, poor fit] | –
63 | N#CC(C#N)=C(N)/C(C#N)=C/c1cc(O)c(O)c(O)c1 | – | inactive: -1.11%
64 | O=C(C1=C[C@@H]2[C@H]3C(=O)N(c4cccc(Cl)c4)C(=O)[C@H]3[C@@H](C(=O)c3ccc(Cl)cc3)N2C=C1)c1ccccc1 | – | inactive: -25.9%
65 | CCCN1CCN(c2ncnc3c2nnn3Cc2ccccc2)CC1 | inconclusive: 22.4 µM [inhibitor, single point] | –
66 | CCOC(=O)c1sc(=S)n(-c2ccccc2)c1C | inconclusive: 12.6 µM [inhibitor, partial curve, poor fit] | –
